This is an account of results in paper PMC5841321.

T1: E3 ubiquitin-protein ligase Midline-1 (UniProt O15344)
T1 sequence: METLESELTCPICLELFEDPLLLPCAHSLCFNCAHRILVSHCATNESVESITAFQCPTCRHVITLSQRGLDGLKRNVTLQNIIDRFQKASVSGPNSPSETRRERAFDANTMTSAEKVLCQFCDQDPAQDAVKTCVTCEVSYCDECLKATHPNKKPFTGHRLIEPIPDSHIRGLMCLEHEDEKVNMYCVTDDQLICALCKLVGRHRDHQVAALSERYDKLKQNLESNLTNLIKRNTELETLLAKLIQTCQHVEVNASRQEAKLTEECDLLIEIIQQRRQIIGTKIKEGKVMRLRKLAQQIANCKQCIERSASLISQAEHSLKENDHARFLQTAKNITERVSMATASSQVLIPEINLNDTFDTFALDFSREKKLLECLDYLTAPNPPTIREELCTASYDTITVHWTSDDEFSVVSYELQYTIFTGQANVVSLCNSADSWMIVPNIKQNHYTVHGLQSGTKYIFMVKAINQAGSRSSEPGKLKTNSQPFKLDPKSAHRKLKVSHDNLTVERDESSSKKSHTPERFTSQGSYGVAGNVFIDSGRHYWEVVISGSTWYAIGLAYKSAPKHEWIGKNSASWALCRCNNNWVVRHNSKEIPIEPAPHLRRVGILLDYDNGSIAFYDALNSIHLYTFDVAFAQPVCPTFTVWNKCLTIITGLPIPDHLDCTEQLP

B1: Pyrroline-5-carboxylate reductase (protein, UniProt P32322 1-319)
chain: MSVGFIGAGQLAFALAKGFTAAGVLAAHKIMASSPDMDLATVSALRKMGVKLTPHNKETVQHSDVLFLAVKPHIIPFILDEIGADIEDRHIVVSCAAGVTISSIEKKLSAFRPAPRVIRCMTNTPVVVREGATVYATGTHAQVEDGRLMEQLLSSVGFCTEVEEDLIDAVTGLSGSGPAYAFTALDALADGGVKMGLPRRLAVRLGAQALLGAAKMLLHSEQHPGQLKDNVSSPGGATIHALHVLESGGFRSLLINAVEASCIRTRELQSMADQEQVSPAAIKKTILDKVKLDSPAGTALSPSGHTKLLPRSLAPAGKD
B2: RNA-binding protein 27 (protein, UniProt Q9P2N5 1-1060)
chain: MLIEDVDALKSWLAKLLEPICDADPSALANYVVALVKKDKPEKELKAFCADQLDVFLQKETSGFVDKLFESLYTKNYLPLLEPVKPEPKPLVQEKEEIKEEVFQEPAEEERDGRKKKYPSPQKTRSESSERRTREKKREDGKWRDYDRYYERNELYREKYDWRRGRSKSRSKSRGLSRSRSRSRGRSKDRDPNRNVEHRERSKFKSERNDLESSYVPVSAPPPNSSEQYSSGAQSIPSTVTVIAPAHHSENTTESWSNYYNNHSSSNSFGRNLPPKRRCRDYDERGFCVLGDLCQFDHGNDPLVVDEVALPSMIPFPPPPPGLPPPPPPGMLMPPMPGPGPGPGPGPGPGPGPGPGPGHSMRLPVPQGHGQPPPSVVLPIPRPPITQSSLINSRDQPGTSAVPNLASVGTRLPPPLPQNLLYTVSERQPMYSREHGAAASERLQLGTPPPLLAARLVPPRNLMGSSIGYHTSVSSPTPLVPDTYEPDGYNPEAPSITSSGRSQYRQFFSRTQTQRPNLIGLTSGDMDVNPRAANIVIQTEPPVPVSINSNITRVVLEPDSRKRAMSGLEGPLTKKPWLGKQGNNNQNKPGFLRKNQYTNTKLEVKKIPQELNNITKLNEHFSKFGTIVNIQVAFKGDPEAALIQYLTNEEARKAISSTEAVLNNRFIRVLWHRENNEQPTLQSSAQLLLQQQQTLSHLSQQHHHLPQHLHQQQVLVAQSAPSTVHGGIQKMMSKPQTSGAYVLNKVPVKHRLGHAGGNQSDASHLLNQSGGAGEDCQIFSTPGHPKMIYSSSNLKTPSKLCSGSKSHDVQEVLKKKQEAMKLQQDMRKKRQEVLEKQIECQKMLISKLEKNKNMKPEERANIMKTLKELGEKISQLKDELKTSSAVSTPSKVKTKTEAQKELLDTELDLHKRLSSGEDTTELRKKLSQLQVEAARLGILPVGRGKTMSSQGRGRGRGRGGRGRGSLNHMVVDHRPKALTVGGFIEEEKEDLLQHFSTANQGPKFKDRRLQISWHKPKVPSISTETEEEEVKEEETETSDLFLPDDDDEDEDEYESRSWRR
B3: RNA-binding protein 28 (protein, UniProt Q9NW13 1-759)
chain: MAGLTLFVGRLPPSARSEQLEELFSQVGPVKQCFVVTEKGSKACRGFGYVTFSMLEDVQRALKEITTFEGCKINVTVAKKKLRNKTKEKGKNENSECPKKEPKAKKAKVADKKARLIIRNLSFKCSEDDLKTVFAQFGAVLEVNIPRKPDGKMRGFGFVQFKNLLEAGKALKGMNMKEIKGRTVAVDWAVAKDKYKDTQSVSAIGEEKSHESKHQESVKKKGREEEDMEEEENDDDDDDDDEEDGVFDDEDEEEENIESKVTKPVQIQKRAVKRPAPAKSSDHSEEDSDLEESDSIDDGEELAQSDTSTEEQEDKAVQVSNKKKRKLPSDVNEGKTVFIRNLSFDSEEEELGELLQQFGELKYVRIVLHPDTEHSKGCAFAQFMTQEAAQKCLLAASPENEAGGLKLDGRQLKVDLAVTRDEAAKLQTTKVKKPTGTRNLYLAREGLIRAGTKAAEGVSAADMAKRERFELLKHQKLKDQNIFVSRTRLCLHNLPKAVDDKQLRKLLLSATSGEKGVRIKECRVMRDLKGVHGNMKGQSLGYAFAEFQEHEHALKALRLINNNPEIFGPLKRPIVEFSLEDRRKLKMKELRIQRSLQKMRSKPATGEPQKGQPEPAKDQQQKAAQHHTEEQSKVPPEQKRKAGSTSWTGFQTKAEVEQVELPDGKKRRKVLALPSHRGPKIRLRDKGKVKPVHPKKPKPQINQWKQEKQQLSSEQVSRKKAKGNKTETRFNQLVEQYKQKLLGPSKGAPLAKRSKWFDS
B4: Reticulocalbin-2 (protein, UniProt Q14257 23-317)
chain: GKAEELHYPLGERRSDYDREALLGVQEDVDEYVKLGHEEQQKRLQAIIKKIDLDSDGFLTESELSSWIQMSFKHYAMQEAKQQFVEYDKNSDDTVTWDEYNIQMYDRVIDFDENTALDDAEEESFRKLHLKDKKRFEKANQDSGPGLSLEEFIAFEHPEEVDYMTEFVIQEALEEHDKNGDGFVSLEEFLGDYRWDPTANEDPEWILVEKDRFVNDYDKDNDGRLDPQELLPWVVPNNQGIAQEEALHLIDEMDLNGDKKLSEEEILENPDLFLTSEATDYGRQLHDDYFYHDEL
B5: RNA-binding protein 14 (protein, UniProt Q96PK6 1-669)
chain: MKIFVGNVDGADTTPEELAALFAPYGTVMSCAVMKQFAFVHMRENAGALRAIEALHGHELRPGRALVVEMSRPRPLNTWKIFVGNVSAACTSQELRSLFERRGRVIECDVVKDYAFVHMEKEADAKAAIAQLNGKEVKGKRINVELSTKGQKKGPGLAVQSGDKTKKPGAGDTAFPGTGGFSATFDYQQAFGNSTGGFDGQARQPTPPFFGRDRSPLRRSPPRASYVAPLTAQPATYRAQPSVSLGAAYRAQPSASLGVGYRTQPMTAQAASYRAQPSVSLGAPYRGQLASPSSQSAAASSLGPYGGAQPSASALSSYGGQAAAASSLNSYGAQGSSLASYGNQPSSYGAQAASSYGVRAAASSYNTQGAASSLGSYGAQAASYGAQSAASSLAYGAQAASYNAQPSASYNAQSAPYAAQQAASYSSQPAAYVAQPATAAAYASQPAAYAAQATTPMAGSYGAQPVVQTQLNSYGAQASMGLSGSYGAQSAAAATGSYGAAAAYGAQPSATLAAPYRTQSSASLAASYAAQQHPQAAASYRGQPGNAYDGAGQPSAAYLSMSQGAVANANSTPPPYERTRLSPPRASYDDPYKKAVAMSKRYGSDRRLAELSDYRRLSESQLSFRRSPTKSSLDYRRLPDAHSDYARYSGSYNDYLRAAQMHSGYQRRM
B6: RNA 3-terminal phosphate cyclase-like protein (protein, UniProt Q9Y2P8 1-373)
chain: MATQAHSLSYAGCNFLRQRLVLSTLSGRPVKIRKIRARDDNPGLRDFEASFIRLLDKITNGSRIEINQTGTTLYYQPGLLYGGSVEHDCSVLRGIGYYLESLLCLAPFMKHPLKIVLRGVTNDQVDPSVDVLKATALPLLKQFGIDGESFELKIVRRGMPPGGGGEVVFSCPVRKVLKPIQLTDPGKIKRIRGMAYSVRVSPQMANRIVDSARSILNKFIPDIYIYTDHMKGVNSGKSPGFGLSLVAETTSGTFLSAELASNPQGQGAAVLPEDLGRNCARLLLEEIYRGGCVDSTNQSLALLLMTLGQQDVSKVLLGPLSPYTIEFLRHLKSFFQIMFKIETKPCGEELKGGDKVLMTCVGIGFSNLSKTLK
B7: RING finger protein 219 (protein, UniProt Q5W0B1 1-726)
chain: MAQTVQNVTLSLTLPITCHICLGKVRQPVICINNHVFCSICIDLWLKNNSQCPACRVPITPENPCKEIIGGTSESEPMLSHTVRKHLRKTRLELLHKEYEDEIDCLQKEVEELKSKNLSLESQIKTILDPLTLVQGNQNEDKHLVTDNPSKINPETVAEWKKKLRTANEIYEKVKDDVDKLKEANKKLKLENGGLVRENLRLKAEVDNRSPQKFGRFAVAALQSKVEQYERETNRLKKALERSDKYIEELESQVAQLKNSSEEKEAMNSICQTALSADGKGSKGSEEDVVSKNQGDSARKQPGSSTSSSSHLAKPSSSRLCDTSSARQESTSKADLNCSKNKDLYQEQVEVMLDVTDTSMDTYLEREWGNKPSDCVPYKDEELYDLPAPCTPLSLSCLQLSTPENRESSVVQAGGSKKHSNHLRKLVFDDFCDSSNVSNKDSSEDDISRSENEKKSECFSSPKTGFWDCCSTSYAQNLDFESSEGNTIANSVGEISSKLSEKSGLCLSKRLNSIRSFEMNRTRTSSEASMDAAYLDKISELDSMMSESDNSKSPCNNGFKSLDLDGLSKSSQGSEFLEEPDKLEEKTELNLSKGSLTNDQLENGSEWKPTSFFLLSPSDQEMNEDFSLHSSSCPVTNEIKPPSCLFQTEFSQGILLSSSHRLFEDQRFGSSLFKMSSEMHSLHNHLQSPWSTSFVPEKRNKNVNQSTKRKIQSSLSSASPSKATKS
B8: Serine/threonine-protein kinase RIO1 (protein, UniProt Q9BRS2 1-568)
chain: MDYRRLLMSRVVPGQFDDADSSDSENRDLKTVKEKDDILFEDLQDNVNENGEGEIEDEEEEGYDDDDDDWDWDEGVGKLAKGYVWNGGSNPQANRQTSDSSSAKMSTPADKVLRKFENKINLDKLNVTDSVINKVTEKSRQKEADMYRIKDKADRATVEQVLDPRTRMILFKMLTRGIITEINGCISTGKEANVYHASTANGESRAIKIYKTSILVFKDRDKYVSGEFRFRHGYCKGNPRKMVKTWAEKEMRNLIRLNTAEIPCPEPIMLRSHVLVMSFIGKDDMPAPLLKNVQLSESKARELYLQVIQYMRRMYQDARLVHADLSEFNMLYHGGGVYIIDVSQSVEHDHPHALEFLRKDCANVNDFFMRHSVAVMTVRELFEFVTDPSITHENMDAYLSKAMEIASQRTKEERSSQDHVDEEVFKRAYIPRTLNEVKNYERDMDIIMKLKEEDMAMNAQQDNILYQTVTGLKKDLSGVQKVPALLENQVEERTCSDSEDIGSSECSDTDSEEQGDHARPKKHTTDPDIDKKERKKMVKEAQREKRKNKIPKHVKKRKEKTAKTKKGK

Results are given in words; binding and its absence hold for the method and conditions named. In cells and extracts the contact can be indirect. Here binding means that the protein was enriched with, or labelled near, the bait; the list need not be complete.

This experiment concerns the target T1, E3 ubiquitin-protein ligase Midline-1. Kind of experiment: affinity purification with mass spectrometry; MID1-FLAG expressed in HEK293T, lysate in TKM buffer (20 mM Tris pH 7.4, 100 mM KCl, 5 mM MgCl2, 0.5% NP40, 1 mM DTT), anti-FLAG M1 agarose overnight at 4 °C, 6 washes; untransfected cells as control; Q-Exactive, MaxQuant, 1% FDR.
As to B1, the binding result is recorded as “binds”. Under B2 stands “binds”; under B3, “binds”; under B4, “binds”. In the case of B5, the binding result is recorded as “binds”. The result for B6 reads “binds”; that for B7, “binds”.

Consider B8, for which the binding result is recorded as “binds”.
